Record: PubChem BioAssay AID1259266 (Sanger Institute, 2017)

Aim: 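Search kinases and colorectal cancer genes for essential genes and drug synergy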 (primary screen)
Cells: LS123 human colorectal cancer cells
Knock-down reagent: siRNA pool against human genes
Treatment: anchor drugs BYL719 (1 µM), cetuximab (5 µg/ml) or trametinib (10 nM), each chosen to barely slow growth alone; DMSO vehicle as the drug-free arm
Measured: 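Viability relative to non-targeting control pools, replicate mean, with a robust z-score for knock-down alone and synergy scores for each anchor drug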
Direction: robust z-score, knock-down alone: higher = more cells surviving after knock-down; viability, knock-down alone: higher = more viable cells; synergy score with trametinib and synergy score with BYL719 and synergy score with cetuximab: higher = stronger synthetic lethality with drug
Hit rule: 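a knock-down counts as essential if its z-score without drug is under -3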
Meaning of the calls: active = essential (knock-down alone cuts viability); inactive = no change
This is a random part of 794 reagents. In the full data, 16 (2%) got an active call. 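Calls reflect knock-down alone, not drug synergy; viability seems capped at 1 and z-scores at 0.585.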 Unmarked entries are inactive. Not stated in the record: the amount of reagent, the time to read-out.

| gene | PubChem SID | robust z-score, knock-down alone | viability, knock-down alone (fraction of control) | synergy score with trametinib | synergy score with BYL719 | synergy score with cetuximab |
| --- | --- | --- | --- | --- | --- | --- |
| WNK1 | SID152148140 | 0.585 | 1 | -0.103 | -0.0861 | -0.0122 |
| CASP8 | SID135620682 | 0.585 | 1 | -0.186 | -0.131 | -0.0122 |
| KIT | SID152151885 | -3.04 (active) | 0.785 | -0.147 | -0.189 | -0.156 |
| PDK4 | SID152155412 | 0.585 | 1 | -0.0128 | 0.0239 | 0.0346 |
| HIPK2 | SID56478619 | 0.585 | 1 | -0.033 | -0.0831 | -0.0122 |
| PHKG1 | SID152147540 | 0.585 | 1 | -0.064 | -0.159 | -0.0122 |
| PTPN11 | SID134310183 | 0.585 | 1 | -0.186 | -0.159 | -0.0122 |
| RBKS | SID56479147 | 0.585 | 1 | -0.113 | -0.0976 | -0.0122 |
| MAP2K3 | SID152148115 | -0.289 | 0.948 | 0.0172 | 0.00848 | 0.0268 |

Hits, of those listed so far:
| gene | PubChem SID | robust z-score, knock-down alone | viability, knock-down alone (fraction of control) | synergy score with trametinib | synergy score with BYL719 | synergy score with cetuximab |
| --- | --- | --- | --- | --- | --- | --- |
| KIT | SID152151885 | -3.04 (active) | 0.785 | -0.147 | -0.189 | -0.156 |

The listing continues.
| gene | PubChem SID | robust z-score, knock-down alone | viability, knock-down alone (fraction of control) | synergy score with trametinib | synergy score with BYL719 | synergy score with cetuximab |
| --- | --- | --- | --- | --- | --- | --- |
| FGFR3 | SID56478513 | 0.585 | 1 | -0.105 | 0.00252 | -0.0122 |
| MAP4K3 | SID135620707 | -1.39 | 0.883 | -0.0211 | -0.125 | -0.0911 |
| MAST1 | SID135620865 | 0.585 | 1 | -0.147 | -0.154 | -0.0122 |
| BPTF | SID152156181 | 0.13 | 0.973 | -0.0116 | 0.0323 | 0.0212 |
| DGKQ | SID56478983 | -0.681 | 0.925 | -0.0413 | -0.028 | 0.105 |
| BRSK1 | SID135620852 | 0.585 | 1 | -0.142 | -0.159 | -0.0122 |
| CMPK1 | SID56478766 | 0.585 | 1 | -0.0734 | -0.0812 | -0.0122 |
| MLKL | SID56479010 | 0.585 | 1 | -0.0205 | -0.0482 | -0.0122 |
| FLT4 | SID152148537 | 0.585 | 1 | -0.0159 | -0.05 | 0.0975 |
| CKS1B | SID56478807 | 0.215 | 0.978 | -0.0743 | -0.0998 | -0.0253 |
| SPHK1 | SID152154122 | -0.0452 | 0.963 | -0.0164 | -0.0853 | 0.0664 |
